Source: the supplement of paper PMC12067093, “Discovery and optimisation of a covalent ligand for TRIM25 and its application to targeted protein ubiquitination” (Chemical Science, 2025)
Some of the results follow.

Chains of the proteins cited; added tags and fusions are not shown. Lines headed by an entry give the natural chain unless they say otherwise; changes in a name come on top.
UniProt Q9ULE6: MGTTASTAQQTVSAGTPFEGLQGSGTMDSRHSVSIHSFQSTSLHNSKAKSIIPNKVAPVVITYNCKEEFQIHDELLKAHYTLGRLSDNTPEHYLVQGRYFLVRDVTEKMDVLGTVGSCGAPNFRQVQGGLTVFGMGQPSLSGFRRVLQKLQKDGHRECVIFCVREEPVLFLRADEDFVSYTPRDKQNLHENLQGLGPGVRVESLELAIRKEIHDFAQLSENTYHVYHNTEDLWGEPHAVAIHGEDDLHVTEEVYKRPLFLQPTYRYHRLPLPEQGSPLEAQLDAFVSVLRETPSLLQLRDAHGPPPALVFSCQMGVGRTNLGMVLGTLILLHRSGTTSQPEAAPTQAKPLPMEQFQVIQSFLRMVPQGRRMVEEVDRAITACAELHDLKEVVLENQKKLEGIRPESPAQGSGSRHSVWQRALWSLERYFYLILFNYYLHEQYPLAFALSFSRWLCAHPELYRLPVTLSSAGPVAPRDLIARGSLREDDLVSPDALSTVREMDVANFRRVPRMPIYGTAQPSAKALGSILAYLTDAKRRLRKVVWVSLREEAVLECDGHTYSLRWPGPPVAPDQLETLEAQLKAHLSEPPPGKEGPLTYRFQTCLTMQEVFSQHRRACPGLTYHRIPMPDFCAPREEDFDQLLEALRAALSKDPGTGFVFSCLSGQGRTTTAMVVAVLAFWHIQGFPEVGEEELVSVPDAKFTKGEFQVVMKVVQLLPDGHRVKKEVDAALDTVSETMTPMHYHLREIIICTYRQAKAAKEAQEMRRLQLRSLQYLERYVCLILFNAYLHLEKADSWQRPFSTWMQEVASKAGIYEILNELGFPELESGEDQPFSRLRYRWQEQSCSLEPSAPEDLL
UniProt Q9BXW6, whole entry, looked up: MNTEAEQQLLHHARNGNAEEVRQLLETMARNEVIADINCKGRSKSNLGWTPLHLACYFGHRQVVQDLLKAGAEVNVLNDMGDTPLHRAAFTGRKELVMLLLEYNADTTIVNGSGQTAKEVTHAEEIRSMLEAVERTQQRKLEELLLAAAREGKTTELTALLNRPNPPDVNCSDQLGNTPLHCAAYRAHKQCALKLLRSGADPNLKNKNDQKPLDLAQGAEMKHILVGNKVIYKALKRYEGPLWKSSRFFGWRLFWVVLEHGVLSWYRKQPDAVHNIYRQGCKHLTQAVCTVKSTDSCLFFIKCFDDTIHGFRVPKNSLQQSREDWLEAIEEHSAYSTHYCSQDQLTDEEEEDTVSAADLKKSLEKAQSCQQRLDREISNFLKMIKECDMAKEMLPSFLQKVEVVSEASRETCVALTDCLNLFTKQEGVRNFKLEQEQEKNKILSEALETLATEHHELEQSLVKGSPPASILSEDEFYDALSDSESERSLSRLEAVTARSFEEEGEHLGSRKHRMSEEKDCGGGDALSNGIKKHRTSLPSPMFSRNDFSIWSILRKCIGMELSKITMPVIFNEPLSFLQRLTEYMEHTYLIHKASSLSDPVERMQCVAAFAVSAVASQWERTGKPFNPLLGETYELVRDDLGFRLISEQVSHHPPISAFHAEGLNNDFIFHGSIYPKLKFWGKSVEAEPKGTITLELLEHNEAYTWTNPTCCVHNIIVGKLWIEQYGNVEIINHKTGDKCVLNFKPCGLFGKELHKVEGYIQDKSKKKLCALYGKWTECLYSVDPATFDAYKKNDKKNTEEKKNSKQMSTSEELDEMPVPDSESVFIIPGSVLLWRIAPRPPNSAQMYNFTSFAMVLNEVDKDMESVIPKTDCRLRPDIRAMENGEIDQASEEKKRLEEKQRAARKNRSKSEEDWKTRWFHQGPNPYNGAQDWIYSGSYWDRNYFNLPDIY
UniProt Q9UQ80: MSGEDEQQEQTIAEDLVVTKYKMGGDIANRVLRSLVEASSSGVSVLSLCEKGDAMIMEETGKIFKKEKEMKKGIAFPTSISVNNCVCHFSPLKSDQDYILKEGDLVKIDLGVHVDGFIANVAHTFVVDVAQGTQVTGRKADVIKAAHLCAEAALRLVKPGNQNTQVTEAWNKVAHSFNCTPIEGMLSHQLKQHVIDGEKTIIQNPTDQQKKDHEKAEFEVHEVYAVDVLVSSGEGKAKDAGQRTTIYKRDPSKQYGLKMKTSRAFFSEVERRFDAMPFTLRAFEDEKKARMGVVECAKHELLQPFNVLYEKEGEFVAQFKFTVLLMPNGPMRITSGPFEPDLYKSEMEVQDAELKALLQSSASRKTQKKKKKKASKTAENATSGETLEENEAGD
UniProt Q9UBD5: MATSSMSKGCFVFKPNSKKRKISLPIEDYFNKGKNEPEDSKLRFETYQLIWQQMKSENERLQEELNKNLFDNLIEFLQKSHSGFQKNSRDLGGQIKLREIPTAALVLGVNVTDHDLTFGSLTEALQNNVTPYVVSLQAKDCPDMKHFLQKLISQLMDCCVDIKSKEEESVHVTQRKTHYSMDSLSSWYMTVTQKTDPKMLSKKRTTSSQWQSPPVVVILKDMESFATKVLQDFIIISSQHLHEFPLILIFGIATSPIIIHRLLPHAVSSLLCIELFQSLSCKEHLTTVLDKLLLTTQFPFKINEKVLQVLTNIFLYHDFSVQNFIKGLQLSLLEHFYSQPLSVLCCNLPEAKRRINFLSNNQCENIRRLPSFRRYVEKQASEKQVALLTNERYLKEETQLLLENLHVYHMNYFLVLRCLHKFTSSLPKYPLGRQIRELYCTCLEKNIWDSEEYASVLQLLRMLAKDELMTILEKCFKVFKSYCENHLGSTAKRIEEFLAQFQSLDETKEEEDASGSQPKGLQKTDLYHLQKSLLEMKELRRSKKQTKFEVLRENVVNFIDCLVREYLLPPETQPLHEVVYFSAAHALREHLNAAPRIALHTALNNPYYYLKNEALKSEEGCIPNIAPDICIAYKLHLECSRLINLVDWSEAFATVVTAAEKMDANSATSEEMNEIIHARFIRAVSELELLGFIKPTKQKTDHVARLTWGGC
UniProt Q460N5, whole entry, looked up: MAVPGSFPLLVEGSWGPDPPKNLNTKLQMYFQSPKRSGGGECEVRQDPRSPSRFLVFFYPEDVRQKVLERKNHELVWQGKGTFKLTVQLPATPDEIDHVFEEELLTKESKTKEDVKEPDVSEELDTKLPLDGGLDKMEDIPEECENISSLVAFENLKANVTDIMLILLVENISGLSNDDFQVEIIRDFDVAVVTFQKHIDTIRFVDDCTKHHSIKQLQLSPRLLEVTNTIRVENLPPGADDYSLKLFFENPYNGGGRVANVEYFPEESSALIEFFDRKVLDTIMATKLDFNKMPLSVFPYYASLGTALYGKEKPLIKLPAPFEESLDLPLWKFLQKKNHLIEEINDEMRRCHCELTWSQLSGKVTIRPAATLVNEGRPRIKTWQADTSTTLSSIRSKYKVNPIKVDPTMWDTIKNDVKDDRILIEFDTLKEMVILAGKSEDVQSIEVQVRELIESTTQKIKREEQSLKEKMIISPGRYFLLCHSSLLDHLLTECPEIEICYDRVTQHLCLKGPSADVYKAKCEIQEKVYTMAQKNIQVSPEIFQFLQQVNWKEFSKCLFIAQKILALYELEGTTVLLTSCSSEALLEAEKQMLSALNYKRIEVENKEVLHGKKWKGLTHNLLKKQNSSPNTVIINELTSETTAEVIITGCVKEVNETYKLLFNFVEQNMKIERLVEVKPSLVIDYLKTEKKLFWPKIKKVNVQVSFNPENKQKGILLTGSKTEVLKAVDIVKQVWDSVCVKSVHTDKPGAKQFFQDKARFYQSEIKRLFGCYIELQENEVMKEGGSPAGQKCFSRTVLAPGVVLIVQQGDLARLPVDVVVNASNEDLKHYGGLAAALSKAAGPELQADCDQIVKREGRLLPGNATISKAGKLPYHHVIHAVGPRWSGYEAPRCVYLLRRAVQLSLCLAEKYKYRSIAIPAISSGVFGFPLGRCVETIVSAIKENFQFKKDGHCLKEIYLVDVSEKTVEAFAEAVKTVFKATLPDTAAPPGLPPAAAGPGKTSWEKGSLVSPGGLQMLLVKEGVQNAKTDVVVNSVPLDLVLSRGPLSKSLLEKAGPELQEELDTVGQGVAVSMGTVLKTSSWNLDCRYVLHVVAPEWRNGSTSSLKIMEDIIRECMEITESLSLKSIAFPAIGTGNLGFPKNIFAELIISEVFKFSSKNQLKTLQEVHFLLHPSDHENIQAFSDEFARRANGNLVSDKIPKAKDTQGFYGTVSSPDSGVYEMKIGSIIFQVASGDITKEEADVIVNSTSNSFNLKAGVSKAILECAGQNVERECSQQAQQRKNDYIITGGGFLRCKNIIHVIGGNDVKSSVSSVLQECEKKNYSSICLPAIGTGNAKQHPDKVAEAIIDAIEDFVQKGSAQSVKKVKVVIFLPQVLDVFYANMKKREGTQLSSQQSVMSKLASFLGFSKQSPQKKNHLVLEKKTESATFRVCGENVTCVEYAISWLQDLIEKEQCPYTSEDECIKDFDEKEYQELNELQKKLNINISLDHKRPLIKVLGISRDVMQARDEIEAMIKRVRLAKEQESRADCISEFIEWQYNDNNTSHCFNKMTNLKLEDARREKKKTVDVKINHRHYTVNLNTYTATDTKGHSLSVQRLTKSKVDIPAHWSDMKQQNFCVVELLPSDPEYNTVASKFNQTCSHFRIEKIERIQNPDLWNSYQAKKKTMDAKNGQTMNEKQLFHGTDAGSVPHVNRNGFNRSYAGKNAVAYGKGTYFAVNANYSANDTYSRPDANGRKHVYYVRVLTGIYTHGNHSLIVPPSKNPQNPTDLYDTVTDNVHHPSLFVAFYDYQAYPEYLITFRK
UniProt Q9H0X9: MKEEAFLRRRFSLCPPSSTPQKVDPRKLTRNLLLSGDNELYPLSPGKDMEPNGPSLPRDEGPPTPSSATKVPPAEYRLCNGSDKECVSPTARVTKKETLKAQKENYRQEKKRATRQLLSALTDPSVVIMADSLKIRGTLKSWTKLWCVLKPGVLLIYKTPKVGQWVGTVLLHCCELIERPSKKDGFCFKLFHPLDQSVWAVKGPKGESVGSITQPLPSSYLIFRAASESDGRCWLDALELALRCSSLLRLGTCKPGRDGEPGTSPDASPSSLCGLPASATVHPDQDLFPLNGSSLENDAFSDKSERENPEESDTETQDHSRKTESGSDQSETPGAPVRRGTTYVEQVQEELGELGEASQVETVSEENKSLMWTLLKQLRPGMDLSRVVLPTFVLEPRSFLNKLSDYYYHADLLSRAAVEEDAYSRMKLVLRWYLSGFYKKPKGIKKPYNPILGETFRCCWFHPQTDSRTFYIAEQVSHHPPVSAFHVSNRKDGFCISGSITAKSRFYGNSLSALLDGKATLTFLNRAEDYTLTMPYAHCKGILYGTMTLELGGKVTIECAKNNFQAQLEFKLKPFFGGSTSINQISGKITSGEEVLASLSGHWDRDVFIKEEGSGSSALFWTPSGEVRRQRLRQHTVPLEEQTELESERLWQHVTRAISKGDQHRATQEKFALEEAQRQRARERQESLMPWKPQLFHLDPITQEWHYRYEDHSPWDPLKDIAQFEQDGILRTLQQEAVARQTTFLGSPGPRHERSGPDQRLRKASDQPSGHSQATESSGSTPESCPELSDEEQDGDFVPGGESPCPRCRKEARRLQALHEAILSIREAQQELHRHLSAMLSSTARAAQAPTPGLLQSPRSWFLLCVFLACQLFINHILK
UniProt Q8N573: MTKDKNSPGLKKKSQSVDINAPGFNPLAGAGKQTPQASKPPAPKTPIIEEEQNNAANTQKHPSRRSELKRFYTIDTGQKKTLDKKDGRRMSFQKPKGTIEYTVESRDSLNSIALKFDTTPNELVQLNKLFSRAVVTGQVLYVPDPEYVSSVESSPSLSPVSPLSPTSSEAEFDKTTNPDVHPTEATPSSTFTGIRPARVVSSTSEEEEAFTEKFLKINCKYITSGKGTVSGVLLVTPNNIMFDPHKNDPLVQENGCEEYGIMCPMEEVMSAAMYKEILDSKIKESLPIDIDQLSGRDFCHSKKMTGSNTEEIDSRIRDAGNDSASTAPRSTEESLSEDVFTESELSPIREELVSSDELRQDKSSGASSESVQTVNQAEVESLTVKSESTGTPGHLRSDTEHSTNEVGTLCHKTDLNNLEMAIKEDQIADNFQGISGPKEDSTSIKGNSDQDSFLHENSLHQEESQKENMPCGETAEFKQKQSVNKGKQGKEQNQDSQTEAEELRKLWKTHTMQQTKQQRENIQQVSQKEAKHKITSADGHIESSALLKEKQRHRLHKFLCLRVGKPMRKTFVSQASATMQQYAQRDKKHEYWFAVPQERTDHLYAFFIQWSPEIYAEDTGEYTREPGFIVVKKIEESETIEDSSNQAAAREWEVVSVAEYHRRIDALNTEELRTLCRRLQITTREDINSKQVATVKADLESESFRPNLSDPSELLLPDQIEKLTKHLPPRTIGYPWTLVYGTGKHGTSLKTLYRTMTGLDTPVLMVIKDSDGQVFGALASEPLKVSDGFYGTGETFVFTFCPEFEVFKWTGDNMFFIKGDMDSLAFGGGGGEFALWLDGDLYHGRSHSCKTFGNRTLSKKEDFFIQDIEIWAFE

Compound: Cc1cc(ccc1-c1ccccc1)C(=O)N1CCCN(CC1)C(=O)CCl [compound 10]
Experiment: probe-labelled cysteine peptide fold change vs DMSO (competition) (log2 fold change); higher = less target engagement (more negative = stronger competition)
Details: THP-1, incubation time: 4 h
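Note: competitive profiling in live THP-1 cells: cysteine peptides tagged with an iodoacetamide desthiobiotin (IA-DTB) probe, intensity after compound treatment relative to DMSO-treated cells.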

Row | Target | probe-labelled cysteine peptide fold change (10 µM) | probe-labelled cysteine peptide fold change (50 µM)
1 | PALD1_Q9ULE6_312_DAHGPPPALVFSCQMGVGR (UniProt Q9ULE6) | 0.248 | 0.103
2 | OTULIN_Q96BN8_47_AAASGQPRPEMQCPAEHEEDMYR (UniProt Q96BN8) | -0.315 | -0.133
3 | PAPSS2_O95340_350_VWGTTCTK (UniProt O95340) | -0.0315 | -0.256
4 | OSBPL1A_Q9BXW6_297_STDSCLFFIK (UniProt Q9BXW6) | -0.165 | -0.436
5 | OS9_Q13438_73_QRYECR (UniProt Q13438) | 0.0266 | 0.225
6 | PA2G4_Q9UQ80_85_GIAFPTSISVNNCVCHFSPLK (UniProt Q9UQ80) | 0.203 | -0.024
7 | PARP1_P09874_845_NTHATTHNAYDLEVIDIFKIEREGECQR (UniProt P09874) | -0.189 | -0.814
8 | PAFAH1B2_P68402_206_ICKPLHELIMQLLEETPEEK (UniProt P68402) | -0.134 | -0.747
9 | OSBPL8_Q9BZF1_617_LKPFLGSSDCVNQISGK (UniProt Q9BZF1) | -0.136 | -0.0865
10 | PAPSS1_O43252_212_TDSCDVNDCVQQVVELLQER (UniProt O43252) | 0.218 | 0.0226
11 | PAN3_Q58A45_506_SSNFGYITSCYK (UniProt Q58A45) | -0.146 | 0.0558
12 | ORC3_Q9UBD5_561_ENVVNFIDCLVR (UniProt Q9UBD5) | 0.171 | 0.419
13 | PARN_O95453_543_LNPQCIPYTLQNHYYR (UniProt O95453) | -0.149 | 0.0448
14 | PABPC1_P11940_128_ALYDTFSAFGNILSCK (UniProt P11940) | 0.0813 | -0.0937
15 | PABPC4_Q13310-3_488_VGSECPDR (UniProt Q13310) | -0.351 | -0.512
16 | PAPSS1_O43252_8_MEIPGSLCK (UniProt O43252) | -0.295 | 0.204
17 | OSBPL1A_Q9BXW6_520_DCGGGDALSNGIK (UniProt Q9BXW6) | -0.148 | -0.0947
18 | PALD1_Q9ULE6_555_EEAVLECDGHTYSLR (UniProt Q9ULE6) | -0.126 | 0.408
19 | ORC3_Q9UBD5_363_INFLSNNQCENIR (UniProt Q9UBD5) | -0.0787 | -0.0975
20 | PACS1_Q6VY07_732_VMQYVNGAATTHQLPVAEAMLTCR (UniProt Q6VY07) | 0.122 | 0.216
21 | PARG_Q86W56_608_IALCLPNICTQPIPLLK (UniProt Q86W56) | 0.177 | -0.0522

Row | Target | probe-labelled cysteine peptide fold change (10 µM) | probe-labelled cysteine peptide fold change (50 µM)
22 | ORC1_Q13415_253_RLELGNLGNPQMSQQTSCASLDSPGR (UniProt Q13415) | -0.643 | -0.242
23 | OSGEPL1_Q9H4B0_216_HPECSTMSGGK (UniProt Q9H4B0) | -0.0466 | -0.31
24 | OTUD6B_Q8N6M0_158_QIPSDGHCMYK (UniProt Q8N6M0) | -0.0185 | -0.106
25 | PARP12_Q9H0J9_85_AHQGSKPGCVGLCAQLHLCR (UniProt Q9H0J9) | -0.373 | 0.00259
26 | PAPSS1_O43252_290+295_EREYLQCLHFDCLLDGGVINLSVPIVLTATHEDK (UniProt O43252) | 0.105 | -0.159
27 | P2RX4_Q99571_270_AASLCLPR (UniProt Q99571) | -0.169 | -0.211
28 | PARP14_Q460N5_1265_AILECAGQNVER (UniProt Q460N5) | -0.328 | -0.27
29 | PAK1IP1_Q9NWT1_237_FFDCDSLVCLCEFK (UniProt Q9NWT1) | 0.0404 | 0.546
30 | PA2G4_Q9UQ80_296_MGVVECAK (UniProt Q9UQ80) | -0.0573 | -0.174
31 | PANK4_Q9NVE7_651_GTEVILACNSGPALNDVTHSESLIVAER (UniProt Q9NVE7) | -0.119 | -0.258
32 | PAIP1_Q9H074_358_IENVVLDANCSR (UniProt Q9H074) | 0.137 | 0.0612
33 | OSGEP_Q9NPF4_110_PLVGVNHCIGHIEMGR (UniProt Q9NPF4) | 0.017 | 0.107
34 | PAICS_P22234_81_CGETAFIAPQCEMIPIEWVCR (UniProt P22234) | 0.0898 | -0.252
35 | PARP1_P09874_429_ASLCISTKK (UniProt P09874) | -0.0318 | -0.642
36 | OSBPL1A_Q9BXW6_303_CFDDTIHGFRVPK (UniProt Q9BXW6) | -0.0663 | -0.385
37 | PARP1_P09874_908_SANYCHTSQGDPIGLILLGEVALGNMYELK (UniProt P09874) | 0.191 | 0.241
38 | P3H1_Q32P28_591+600_KDDSHPVHVDNCILNAETLVCVK (UniProt Q32P28) | -0.376 | -0.0435
39 | OSBPL5_Q9H0X9_253_LGTCKPGR (UniProt Q9H0X9) | -0.358 | -0.889
40 | P4HTM_Q9NXG6_156_PLLFEIPGFLTDEECR (UniProt Q9NXG6) | 0.372 | 0.492
41 | PARP4_Q9UKK3_1293_LLDLSWTESCKPTATEPLFK (UniProt Q9UKK3) | -0.105 | -0.108
42 | OXR1_Q8N573-2_50_FEDYLREPAQGDLGCGSPPHRPPAPSSPEGPDTGQK (UniProt Q8N573) | 0.0174 | -0.41

Single records (already shown):
OXR1_Q8N573-2_50_FEDYLREPAQGDLGCGSPPHRPPAPSSPEGPDTGQK (UniProt Q8N573) is entered as probe-labelled cysteine peptide fold change (10 µM) = 0.0174; probe-labelled cysteine peptide fold change (50 µM) = -0.41
OSBPL5_Q9H0X9_253_LGTCKPGR (UniProt Q9H0X9) is entered as probe-labelled cysteine peptide fold change (10 µM) = -0.358; probe-labelled cysteine peptide fold change (50 µM) = -0.889
PARP14_Q460N5_1265_AILECAGQNVER (UniProt Q460N5) is entered as probe-labelled cysteine peptide fold change (10 µM) = -0.328; probe-labelled cysteine peptide fold change (50 µM) = -0.27
